Experimental data taken from paper PMC11703099.
Results are given in words; binding and its absence hold for the method and conditions named. Some results given as binding are weak or reduced against the parent protein; the word gives no strength.

Target: T1, N-terminal domain of ULP-2 (Gal4-DB::ULP-2 bait) (C. elegans) (UniProt Q23238)
T1 sequence: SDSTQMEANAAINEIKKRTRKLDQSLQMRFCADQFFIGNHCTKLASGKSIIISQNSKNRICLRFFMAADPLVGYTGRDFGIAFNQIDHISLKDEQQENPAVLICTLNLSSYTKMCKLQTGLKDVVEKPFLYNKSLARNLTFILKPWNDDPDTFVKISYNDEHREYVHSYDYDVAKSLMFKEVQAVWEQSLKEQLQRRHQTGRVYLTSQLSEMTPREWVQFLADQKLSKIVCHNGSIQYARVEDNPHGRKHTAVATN
Assay: two-hybrid; directed test: SET-26 fragments in Gal4-AD vector pMB29 (Y8800) mated with Gal4-DB::ULP-2 (Y8930); SC plates lacking leucine, tryptophan and histidine or adenine; 2 mM 3-AT on plates lacking histidine

B1: N-terminal fragment of SET-26 (residues 1-575, exons 1-4) (domain or fragment, UniProt Q9U263 1-575)
chain: MADGEHTLPADEELFEQPPLQQQQPEIAEPIVMAQEPIQGVSEDPQASEATHEAPDNYPVDHQMENQEFYQEPQIPEPQQIPQIPVFQPAAYNPPNYVAPQQRANNFGEPAAAADSRPLTEEEQLAAERPTEDTVWIDSDDDTDVEEAILRANFWLPYSDHNYDPPDPADRIILPTEGPFPCIAGLDEDCNIVKQWMPEDAVGPGSPGTQYRRNQQTGGGLPSTSVAPQQQQLPVRHNIQNRPMVAAQPFSIGGNQVEYGGIGGMDSRMQQRGVVRDGPQYRVMNDFGNGLPMRGQLPPRNSPAANAINRVREQQQQMYHQAGARGSLQQRVPAPAAPTPGSYQHIVNAVPVGGANPMRRVPPQARPGMIGGAANNNRARPIHVTRPMDTQEFEHPVAPAAAAPPRRVVDVAPHRMTPEQRQELQQMNRQRAAPQFPAAAAQRSAEKIVIQQRPGASSSRAPRPSMAQEDLLRSPTRRLSERVPQEHQTPVLEPRRFQVKVTDTYSTPIPKASDQLPAQLTEEDPPEESAAAAAPEDVPDAAPEDPPKGILKPTPPHRMTQEEKNAHFARLTTDK
binding: binds
